Results published in patent publication US6906035B2, “Antimicrobial cationic peptides” (priority 1995, dated 2005).
Part of at least one peptide drawing is inferred or uncertain, most often the ends. Ends that are not written are not given here.

How the values were obtained:
E. coli ML 35 = experiment: Inner membrane permeabilization (ONPG hydrolysis by β-galactosidase); format: cell-based; conditions: E. coli ML 35, ONPG
Experimental: Inner membrane permeability was determined by measurement in E. coli ML 35 of β-galactosidase activity using ONPG as a substrate. Normally ONPG cannot pass across the cytoplasmic membrane to permit hydrolysis by the cytoplasmic enzyme β-galactosidase. However, cationic peptides, by permeabilizing the inner membrane, unmasks this enzyme leading to color development as ONP is released. […] Addition of citrate increased the lag time before the peptides were able to permeabilize the membranes. When the experiments were executed in cation adjusted media (CAMHB), the lag time was increased up to 30 minutes.

[1] = α helical content by CD spectra; format: physicochemical
Experimental: α Helical Content of Cationic Peptides by CD Spectra
The α helical content of the peptides were measured in buffer, liposomes and 20% Hexafluoroisopropanol (HFPIP). The liposomes constituted of POPC alone or POPC and POPC and 30% POPG (Table 7).

LPS = experiment: Dansyl polymyxin displacement assay; format: binding; conditions: Dansyl polymyxin displacement from LPS
Description: In addition, the peptides of SEQ ID NO: 5-8 also bound effectively to LPS with high affinity based on Dansyl polymyxin displacement assays (Table 5).

Compound	Lag Time (E. coli ML 35) [s]	% α helicity ([1]; 20% HFIP) [%]	% α helicity ([1]; POPC/POPG Liposomes (30% POPG)) [%]	1max (LPS) [%]	Rate of Hydrolysis (E. coli ML 35)
CC[C@H](C)[C@H](NC(=O)[C@H](CC(C)C)NC(=O)[C@H](C)NC(=O)[C@@H]1CCCN1C(=O)[C@H](CC(C)C)NC(=O)CNC(=O)[C@@H](NC(=O)[C@@H](NC(=O)[C@H](CC(C)C)NC(=O)[C@@H](NC(=O)[C@H](CCCCN)NC(=O)[C@H](CCCCN)NC(=O)[C@@H](NC(=O)[C@H](C)NC(=O)[C@@H](NC(=O)[C@@H](NC(=O)[C@H](CC(C)C)NC(=O)[C@H](CCCCN)NC(=O)[C@H](CCCCN)NC(=O)[C@@H](NC(=O)[C@H](Cc1ccccc1)NC(=O)[C@H](CCC(=O)O)NC(=O)[C@H](CCCCN)NC(=O)[C@H](Cc1c[nH]c2ccccc12)NC(=O)[C@@H](N)CCCCN)[C@@H](C)CC)[C@@H](C)O)[C@@H](C)O)C(C)C)C(C)C)[C@@H](C)O)[C@@H](C)O)C(=O)N[C@@H](CO)C(=O)O [compound 492]	68	48	19	48	–
KWKKFIKELQKVLAPGGLLSNIVTSL [compound 493]	136	–	20	56	–
KWKSFIKNLEKVLKKGPILANLVSIV [compound 491]	152	–	15	24	–
KWKSFIKNLEKVLKPGGLLSNIVTSL [compound 490]	156	–	27	40	0.031 ΔAU min^−1
